Out of some 210,000 compounds screened, about 5,900 (2.8%) were called active. Roughly 5% stayed inconclusive and do not appear here. Calls follow the shape of the dose curve; as a rule, active = well fitted activation curve with a large enough effect; inconclusive = small, poorly fitted or top-dose-only effect; inactive = no such curve, though single readings can be large or run the other way. The list shows a part of the results, in another mix than the full data. Entries without a call were filed so in the source.
Potency is read from the fitted curve at half-maximal effect.

The assay is described as follows: qHTS Assay for Enhancers of SMN2 Splice Variant Expression. Also: nearly all actives have a fitted effect of over 55% in size. As to activity change, positive = activation: % of control where 0% means no effect. Conditions: HEK293 SMN2-luciferase splicing reporter, luminescence, 30-36 h; activity change, positive = activation: at 46.1 µM (top of the series) unless noted. In outline:
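HEK293 cells carry an SMN2 minigene-luciferase reporter in which exon 7 inclusion puts luciferase in frame. Cells were seeded at 2000 cells/well, attached for 10-12 hours, then exposed to compounds for 30-36 hours at 37C before ONE-Glo luminescence.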
On the technique in general: In qHTS, concentration-response curves come from the screen itself.
Take `Cc1ccc(NC(=O)Cn2c(=O)n(CCC(=O)NC3CCN(Cc4ccccc4)CC3)c(=O)c3ccccc32)cc1`: the activity change, positive = activation was -37.2%.

For the compound `Cc1ccc(C)n1NC(=O)c1ccccc1Cl`, the activity change, positive = activation is 24.3%. On the same count and under the same terms, the value for `O=C(CCC1N=C2c3ccccc3N=C(SCc3ccccc3Cl)N2C1=O)NCCc1ccccc1` (centres undefined) was 40%; that for `Cc1ccc2nc(-c3ccc(Cl)c(NC(=O)c4ccc5c(c4)OCCO5)c3)oc2c1` was inactive: -34.4%.

Consider `O=C(CSc1nnc(-c2ccc(O)cc2)n1Cc1ccco1)c1cccs1`, for which the activity change, positive = activation turned out to be 33.8%. Still for that read-out and setting: the value for `CC(C)C(c1nnnn1C(C)(C)C)N1CCC(Cc2ccccc2)CC1` (centres undefined) was inactive: -48.8%; that for `Cc1ccc(-c2nnc(NCc3nc4ccccc4[nH]3)c3ccccc23)cc1S(=O)(=O)N(C)C` was inactive: -60.3%; that for `O=C(CCCN1C(=O)CCC1=O)Nc1cccc(C(F)(F)F)c1` was -9.86%. For the compound `Cc1c(C(=O)O)cnc2cc(-c3ccc(Cl)cc3)nn12`, the Potency was active: 11.2 µM. With `O=C(NC1CCCCCC1)C1c2ccccc2C(=O)N1Cc1ccc(F)cc1` (centres undefined), the activity change, positive = activation stood at 41.4%. Take `O=C(N/N=C/c1ccc2c(c1)OCO2)c1ccc(Br)o1`: the Potency is active: 12.6 µM. `COC(=O)c1ccc(OCC2c3cc(OC)c(OC)cc3CCN2C(C)=O)cc1` (centres undefined): the “activity change, positive = activation” value is inactive: -37%. Still for that read-out and setting: the value for `COc1ccc2sc(SCCCS(=O)(=O)O)[n+](CCCS(=O)(=O)[O-])c2c1` was 26.7%. On the same count and under the same terms, the value for `O=c1o[nH]c(-c2ccccc2)c1C1=NCCCCC1` was 30.4%. Still for that read-out and setting: the value for `CC(=O)N(/N=C1\Sc2ccccc2C1=O)c1ccc(C)cc1C` was inactive: -67.5%. With `COc1cc(/C=N/N=C2/NC(=O)C(CC(=O)O)S2)ccc1OCc1ccc(Cl)cc1` (centres undefined), the Potency is active: 11.2 µM. As for `Cc1ccc(S(=O)(=O)Nc2ccc3nc(C)sc3c2)cc1`, the “activity change, positive = activation” value was inactive: -51.8%. Take `O=C(NCCCCc1ccccc1)c1ccc(Br)o1`: the activity change, positive = activation was -40.1%. Turning to `Cc1ccc(/C=c2\sc3nc(-c4ccccc4Br)nn3c2=O)o1`, the activity change, positive = activation amounted to 34.9%. Take `O=C(NCCc1csc(-c2ccccc2)n1)c1c(F)cccc1Cl`: the “activity change, positive = activation” value was inactive: -36.3%. For `O=C(O)c1cccc(C(=O)Nc2cccc(NC(=O)C3CCCO3)c2)c1` (centres undefined), the activity change, positive = activation was 38.2%.

In the case of `CCOC(=O)CN1N=C(/C=C/c2ccc(OC)cc2)CCC1=O`, the activity change, positive = activation came out at 31.3%. Same read-out and setting: with `COc1cc(/C(C)=N/NC(=O)CSc2nncn2C)ccc1OCc1ccccc1Cl` the figure was 38.9%; with `COc1cc(NS(=O)(=O)c2ccc(NC(=O)C34CC5CC(CC(C5)C3)C4)cc2)ncn1`, 40%.

Consider `Cc1ccnc(NC2OC(=O)c3ccccc32)c1` (centres undefined), for which the activity change, positive = activation was 37.2%. With `Fc1ccc(NC(=S)NNc2ncc(C(F)(F)F)cc2Cl)c(F)c1`, the “activity change, positive = activation” value was inactive: -60%.

Consider `CCOc1ccc2nc(SCc3ccccc3C#N)sc2c1`, for which the Potency is active: 11.2 µM.

Regarding `O=C(NCCc1c[nH]c2ccccc12)C(=O)NCC(c1cccnc1)N1CCN(c2ccccc2)CC1` (centres undefined), the “activity change, positive = activation” value is inactive: -90.4%. Same read-out and setting: the value for `N#CC(C#N)=C1C=CC=CN1/C(=C\c1ccccc1Cl)C(=O)c1ccccc1` was inactive: -117%; that for `COc1ccc(C(=O)N2c3ccccc3C(C)(c3ccc(Cl)cc3)CC2(C)C)cc1` (centres undefined) was inactive: -49.9%. Same read-out and setting: with `O=C(Nc1cccc(Cl)c1)O/N=C\c1ccncc1` the figure was 30.1%; with `O=C(CC(=O)c1cc(Cl)ccc1O)c1ccccc1`, inactive: -57%. Consider `CCOc1ccc(-c2nnc3sc(COc4ccccc4)nn23)cc1`, for which the activity change, positive = activation worked out at 55.2%. As for `COC(=O)[C@H](C)NC(=O)Nc1ccccc1F`, the activity change, positive = activation amounted to 33.8%. Turning to `CC(C)c1cc(C(=O)Nc2cccnc2)no1`, the Potency was active: 35.5 µM. Turning to `Cc1ccccc1NC(=O)CN1C(=O)S/C(=C\c2cccn2-c2cccc(C(=O)O)c2)C1=O`, the activity change, positive = activation was 32.9%. On to `O=C(Nc1ncc(S(=O)(=O)c2ccc([N+](=O)[O-])cc2)s1)c1cccc2ccccc12`, for which the activity change, positive = activation is -68%. For `COc1cc(C(=O)Nc2nc(C)c(Cc3ccc4c(c3)OCO4)s2)cc(OC)c1OC`, the activity change, positive = activation was -45.2%.

As for `CN(C)c1nc(Oc2ccc(N)cc2)nc(N(C)C)n1`, the activity change, positive = activation was found to be 30.1%.

In the case of `O=C1NC(=O)/C(=C\c2ccc(Cl)nc2)S1`, the activity change, positive = activation was 76.6%. Consider `Cc1ccc(NC(=O)Nc2ccc(Cl)cn2)cc1`, for which the Potency is active: 11.2 µM.

Turning to `Cc1nc(CN2CCN(C(=O)c3ccc(Br)cc3)CC2)cs1`, the activity change, positive = activation is 32.3%.

On to `C=CCN1C(=O)S/C(=C\c2ccc(N3CCOCC3)cc2C)C1=O`, for which the activity change, positive = activation is 39.9%. Consider `O=C(O)c1n[nH]c2c1CCCC2`, for which the activity change, positive = activation amounted to 48.6%. On the same count and under the same terms, with `Nc1ccc(C2=Nc3cccc4cccc(c34)N2)cc1` the figure was -43.8%; with `CCOc1ccc(C(=O)Nc2ccc(N3CCN(C)CC3)cc2)cc1Br`, inactive: -6.05%. Regarding `COc1cccc(NC(=O)c2ccc(C(=O)c3ccccc3)o2)c1`, the Potency was active: 20 µM. `Cc1sc(NC(=O)COc2ccccc2)c(C#N)c1C`: the activity change, positive = activation worked out at 58.3%. On to `COCCn1c(-c2ccc(Cl)cc2Cl)nc2c(c(=O)c3ccccc3n2C)c1=O`, for which the activity change, positive = activation was found to be 33.3%. Regarding `CC(C)c1cc(NC(=O)CCl)on1`, the activity change, positive = activation is -80.9%.

`O=C1CC(c2ccccc2)CC2=C1CN(C1CCCCC1)CN2` (centres undefined): the activity change, positive = activation turned out to be 47.1%. For `CN1CCN(CC2(O)CCN(S(=O)(=O)c3ccc(Cl)cc3)CC2)CC1`, the “activity change, positive = activation” value is inactive: -8.64%. On to `O=C(Oc1ccc(-c2nnco2)cc1)N1CCCCC1`, for which the activity change, positive = activation amounted to 43.2%. Consider `Cc1ccc(C(=O)COc2ccccc2C(=O)Nc2ccccc2)cc1`, for which the “activity change, positive = activation” value is inactive: -46.4%.

(Values after PubChem BioAssay AID1458 (National Center for Advancing Translational Sciences (NCATS), 2008).)
